Laboratory results as given in PMC5430665.

Chains of the proteins cited; added tags and fusions are not shown. Lines headed by an entry give the natural chain unless they say otherwise; changes in a name come on top.
UniProt O75665: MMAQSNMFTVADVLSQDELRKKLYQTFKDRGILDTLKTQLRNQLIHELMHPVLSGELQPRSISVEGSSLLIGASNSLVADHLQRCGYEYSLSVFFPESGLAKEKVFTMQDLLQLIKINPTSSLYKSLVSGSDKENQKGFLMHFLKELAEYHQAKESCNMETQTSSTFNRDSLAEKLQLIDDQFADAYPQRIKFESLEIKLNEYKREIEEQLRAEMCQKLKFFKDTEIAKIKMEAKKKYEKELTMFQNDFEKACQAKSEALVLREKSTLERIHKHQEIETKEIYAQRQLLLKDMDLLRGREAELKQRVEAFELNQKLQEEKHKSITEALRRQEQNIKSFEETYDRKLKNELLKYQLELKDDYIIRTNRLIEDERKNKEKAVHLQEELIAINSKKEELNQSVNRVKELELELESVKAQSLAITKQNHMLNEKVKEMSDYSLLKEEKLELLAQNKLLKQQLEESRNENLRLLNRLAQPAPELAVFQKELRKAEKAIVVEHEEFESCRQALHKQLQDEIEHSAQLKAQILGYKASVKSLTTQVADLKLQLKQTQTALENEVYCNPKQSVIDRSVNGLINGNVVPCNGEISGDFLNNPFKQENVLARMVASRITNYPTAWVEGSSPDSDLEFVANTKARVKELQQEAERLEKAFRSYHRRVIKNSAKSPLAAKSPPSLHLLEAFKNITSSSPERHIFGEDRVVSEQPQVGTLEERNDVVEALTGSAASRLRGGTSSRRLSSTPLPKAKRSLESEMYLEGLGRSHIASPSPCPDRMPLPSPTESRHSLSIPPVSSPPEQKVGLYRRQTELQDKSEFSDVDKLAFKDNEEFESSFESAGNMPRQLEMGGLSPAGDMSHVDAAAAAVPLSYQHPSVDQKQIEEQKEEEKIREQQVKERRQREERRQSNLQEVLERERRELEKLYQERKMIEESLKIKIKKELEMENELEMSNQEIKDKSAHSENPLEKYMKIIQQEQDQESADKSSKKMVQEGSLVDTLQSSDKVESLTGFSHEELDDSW
UniProt P06730: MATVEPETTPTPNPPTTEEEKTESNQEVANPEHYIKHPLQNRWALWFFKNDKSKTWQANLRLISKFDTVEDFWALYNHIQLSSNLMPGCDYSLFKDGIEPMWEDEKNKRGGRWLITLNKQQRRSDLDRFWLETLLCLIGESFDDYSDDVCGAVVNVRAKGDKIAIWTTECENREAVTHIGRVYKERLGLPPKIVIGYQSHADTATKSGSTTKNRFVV

Legend:
[1] = target: 3XFLAG-OFD1 Y282D (human) (UniProt O75665); experiment: co-IP; HEK293 lysates with 3XFLAG-OFD1 wild type or mutated in the eIF4E binding site (Y282S, Y282D); eIF4E detected by WB, eIF4E/OFD1 ratio quantified
[2] = target: 3XFLAG-OFD1 Y282S (human) (UniProt O75665); experiment: as above

Q: Which binding [1] does the source give for eIF4E (from UniProt P06730 1-217) here?
A: binds

Q: And the binding [2]?
A: binds

Results are given in words; binding and its absence hold for the method and conditions named. In cells and extracts the contact can be indirect. Binding can be weak; no strength is given.
